These are yes or no findings as the source states them, for the method shown. Some binding calls cover weakened binding; strength is not graded here.
Target: recombinant TA (assembly) domain of human tenascin-C (human) (UniProt P24821)
Assay: self-association of the refolded TA domain; method not described

By UniProt entry, the sequences of proteins in these tests, tags left out. Residues count along the entry.
UniProt P24821, residues 23-173: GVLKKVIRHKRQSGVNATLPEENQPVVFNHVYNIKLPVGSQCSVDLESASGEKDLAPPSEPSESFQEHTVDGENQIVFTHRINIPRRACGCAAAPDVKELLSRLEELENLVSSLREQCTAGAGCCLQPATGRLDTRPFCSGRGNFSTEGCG

- binding: binds
Substance: recombinant TA (assembly) domain of human tenascin-C (from UniProt P24821 23-173)
